At least one structure is not confirmed: it was looked up by name or label, or the drawing left a doubt.
Test system: human umbilical vein endothelial cells (HUVEC)
Assay: Endothelial tube formation assay on matrigel
Assay type: cell-based
Conditions: addition of VEGFR inhibitor; FIG. 25
Protocol: Growth factor reduced Matrigel (10 μL/well) was allowed to polymerize for 1 h on angiogenesis 96 well μ-plates (ibidi, GmbH) at 37° C., 5% CO2. HUVEC (5×10^3 cells/well) suspended in 50 μL of pre-warmed Eagle Basal Medium (CTRL), 10% FBS, or conditioned media from WM266^S, or WM266^R cells, were seeded on matrigel and allowed to form tubes at 37° C. in humidified air with 5% CO2 for 6 h. In order to quantify tube formation, images were acquired and the number of tubes formed by cord-like structures exceeding 100 μm in length were visualized using Axiovision 4.8 software (Carl Zeiss) and counted.
This finding was of particular interest in the light of the known involvement of VEGF in melanoma progression and resistance to therapy (23). […] Of note, for our results only tube-like structures exceeding 100 μm in length were considered. […] As control, 10% FBS employed as a source of angiogenic growth factors, elicited a considerable response rising to 204% over basal (FIG. 24). […] In order to find a correlation between miRNAs deregulation and […]

## Cc1ccc(Nc2nccc(N(C)c3ccc4c(C)n(C)nc4c3)n2)cc1S(N)(=O)=O [Pazopanib]
  tube formation induced by CM from WM266^R melanoma cells: significantly inhibited

Reference: patent publication US11492671B2, “MiRNAs for treatment and in vitro diagnosis of drug resistant tumors” (ISTITUTI FISIOTERAPICI OSPITALIERI, priority 2018, dated 2022)
